According to patent US11292821B2, “Peptides and combination of peptides for use in immunotherapy against lung cancer, including NSCLC, SCLC and other cancers” (Immatics Biotechnologies GmbH, priority 2017, dated 2022):

Legend:
tumor tissue samples = assay: Identification and relative quantitation of HLA-presented tumor associated peptides by LC-MS (presentation profile); parameters: species or system human; details: for Peptide Presentation on cancer entities: cancer entities on which the tumor-associated peptide was found presented (HLA ligandome LC-MS), abbreviations per table footnote; for presentation on various cancer entities: cancer entities on which the peptide is presented (Table 8)
source genes = assay: Expression profiling of genes encoding the peptides (RNAseq); parameters: species or system human; details: RPKM, FIGS. 2A-2N
[1] = HLA-A*24 cancer tissues vs HLA-A*24 normal samples (N=19 normal, N=94 tumor), FIGS. 1A-1B
[2] = HLA-A*02 cancer tissues vs HLA-A*02 normal samples (N=469 normal, N=528 tumor), FIGS. 1C-1D
[3] = HLA-A*01 cancer tissues vs HLA-A*01 normal samples (N=13 normal, N=40 tumor), FIGS. 1E-1F
[4] = HLA-A*03 cancer tissues vs HLA-A*03 normal samples (N=12 normal, N=28 tumor), FIGS. 1G-1H
[5] = HLA-B*07 cancer tissues vs HLA-B*07 normal samples (N=13 normal, N=36 tumor), FIGS. 1I-1J
[6] = HLA-B*08 cancer tissues vs HLA-B*08 normal samples (N=1 normal, N=22 tumor), FIGS. 1K-1L
[7] = HLA-B*44 cancer tissues vs HLA-B*44 normal samples (N=15 normal, N=25 tumor), FIGS. 1M-1N

For “485 (SEIEDSTKQVF; listed as Homo sapiens) [compound 485]”, the “Peptide Presentation on cancer entities” value (tumor tissue samples) was “MEL, NHL, OC”.
For “486 (SEDDPILQI; listed as Homo sapiens) [compound 486]”, the “Peptide Presentation on cancer entities” value (tumor tissue samples) was “NHL, OC, UEC”.
“487 (AEDQLHHSF; listed as Homo sapiens) [compound 487]” was tested, and the “Peptide Presentation on cancer entities” value (tumor tissue samples) was “AML, NHL”.
“488 (TEFPIIKMY; listed as Homo sapiens) [compound 488]” was tested, and the “Peptide Presentation on cancer entities” value (tumor tissue samples) was “AML, MEL, NHL, OC, PRCA”.
With “SEQ ID NO.: 62 (LYQEILAQL; listed as Homo sapiens)” the “over-presentation of peptide in cancer tissues compared to normal samples” value (“over-presentation … compared to normal samples” for short) (tumor tissue samples; [1]) was “over-presentation”.
“SEQ ID NO.: 65 (VYPASKMFPFI; listed as Homo sapiens)” was tested, and the “over-presentation … compared to normal samples” value (tumor tissue samples; [1]) was “over-presentation”.
With “SEQ ID NO.: 129 (VLYDKDAVYV; listed as Homo sapiens)” the “over-presentation … compared to normal samples” value (tumor tissue samples; [2]) was “over-presentation”.
In the case of “SEQ ID NO.: 130 (NLWGGQGLLGV; listed as Homo sapiens)”, the “over-presentation … compared to normal samples” value (tumor tissue samples; [2]) is reported as “over-presentation”.
In the case of “SEQ ID NO.: 154 (LLDISQKNLY; listed as Homo sapiens)”, the “over-presentation … compared to normal samples” value (tumor tissue samples; [3]) is reported as “over-presentation”.
With “SEQ ID NO.: 174 (SADDIRGIQSLY; listed as Homo sapiens)” the “over-presentation … compared to normal samples” value (tumor tissue samples; [3]) was “over-presentation”.
With “SEQ ID NO.: 202 (KLAELEGALQK; listed as Homo sapiens)” the “over-presentation … compared to normal samples” value (tumor tissue samples; [4]) was “over-presentation”.
“SEQ ID NO.: 291 (SPQRLRGLL; listed as Homo sapiens)” was tested, and the “over-presentation … compared to normal samples” value (tumor tissue samples; [5]) was “over-presentation”.
For “SEQ ID NO.: 315 (DIYQRALNL; listed as Homo sapiens)”, the “over-presentation … compared to normal samples” value (tumor tissue samples; [6]) was “over-presentation”.
In the case of “SEQ ID NO.: 317 (LVKVKVLL; listed as Homo sapiens)”, the “over-presentation … compared to normal samples” value (tumor tissue samples; [6]) is reported as “over-presentation”.
For “SEQ ID NO.: 362 (SEKGVIQVY; listed as Homo sapiens)”, the “over-presentation … compared to normal samples” value (tumor tissue samples; [7]) was “over-presentation”.
In the case of “SEQ ID NO.: 457 (SINKPTSER; listed as Homo sapiens)”, the “over-presentation … compared to normal samples” value (tumor tissue samples; [4]) is reported as “over-presentation”.
In the case of “SEQ ID NO.: 475 (RPHKPGLYL; listed as Homo sapiens)”, the “over-presentation … compared to normal samples” value (tumor tissue samples; [5]) is reported as “over-presentation”.
In the case of “SEQ ID NO.: 489 (SEIGKAVGF; listed as Homo sapiens)”, the “over-presentation … compared to normal samples” value (tumor tissue samples; [7]) is reported as “over-presentation”.
In the case of “SEQ ID No. 3 (YLEKFYGL; listed as Homo sapiens)”, the “presentation on various cancer entities” value (tumor tissue samples) is reported as “hepatocellular carcinoma”.
In the case of “SEQ ID No. 11 (YYSKSVGFMQW; listed as Homo sapiens)”, the “presentation on various cancer entities” value (tumor tissue samples) is reported as “melanoma, ovarian cancer and uterine cancer”.
With “SEQ ID No.: 1: peptide found in ADAMTS12 (gene looked up) (QYDPTPLTW; listed as Homo sapiens)” the “exon expression of source gene in cancer samples versus normal tissues” value (source genes) was “over-expressed”.
With “SEQ ID No.: 2: peptide found in MMP12 (gene looked up) (VWSNVTPLKF; listed as Homo sapiens)” the “exon expression of source gene in cancer samples versus normal tissues” value (source genes) was “over-expressed”.
For “SEQ ID No.: 84: peptide found in MMP12 (gene looked up) (YVDINTFRL; listed as Homo sapiens)”, the “exon expression of source gene in cancer samples versus normal tissues” value (source genes) was “over-expressed”.
In the case of “SEQ ID No.: 222: peptide found in MMP1 (gene looked up) (NPFYPEVEL; listed as Homo sapiens)”, the “exon expression of source gene in cancer samples versus normal tissues” value (source genes) is reported as “over-expressed”.
“SEQ ID No.: 326: peptide found in MMP12 (gene looked up) (QEMQHFLGL; listed as Homo sapiens)” was tested, and the “exon expression of source gene in cancer samples versus normal tissues” value (source genes) was “over-expressed”.

For some of these results: Expression grades refer to the transcript from which the peptide derives; gene names, where given, were looked up from the sequence.
